Test results published in PMC9929257.

The chains behind the UniProt entries cited, without tags or fusion partners. Where a name states a change or a piece, a line headed by the entry shows the natural chain unless it says otherwise.
UniProt Q9BV68: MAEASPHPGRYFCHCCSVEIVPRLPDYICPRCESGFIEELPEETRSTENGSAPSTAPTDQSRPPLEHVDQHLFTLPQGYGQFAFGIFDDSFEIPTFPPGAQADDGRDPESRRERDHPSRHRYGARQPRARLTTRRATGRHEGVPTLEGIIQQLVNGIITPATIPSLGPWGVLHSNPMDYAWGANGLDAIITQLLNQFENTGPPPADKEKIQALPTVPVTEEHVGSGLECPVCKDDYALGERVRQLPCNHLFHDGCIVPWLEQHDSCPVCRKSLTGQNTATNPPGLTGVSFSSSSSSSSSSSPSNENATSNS
UniProt Q92878: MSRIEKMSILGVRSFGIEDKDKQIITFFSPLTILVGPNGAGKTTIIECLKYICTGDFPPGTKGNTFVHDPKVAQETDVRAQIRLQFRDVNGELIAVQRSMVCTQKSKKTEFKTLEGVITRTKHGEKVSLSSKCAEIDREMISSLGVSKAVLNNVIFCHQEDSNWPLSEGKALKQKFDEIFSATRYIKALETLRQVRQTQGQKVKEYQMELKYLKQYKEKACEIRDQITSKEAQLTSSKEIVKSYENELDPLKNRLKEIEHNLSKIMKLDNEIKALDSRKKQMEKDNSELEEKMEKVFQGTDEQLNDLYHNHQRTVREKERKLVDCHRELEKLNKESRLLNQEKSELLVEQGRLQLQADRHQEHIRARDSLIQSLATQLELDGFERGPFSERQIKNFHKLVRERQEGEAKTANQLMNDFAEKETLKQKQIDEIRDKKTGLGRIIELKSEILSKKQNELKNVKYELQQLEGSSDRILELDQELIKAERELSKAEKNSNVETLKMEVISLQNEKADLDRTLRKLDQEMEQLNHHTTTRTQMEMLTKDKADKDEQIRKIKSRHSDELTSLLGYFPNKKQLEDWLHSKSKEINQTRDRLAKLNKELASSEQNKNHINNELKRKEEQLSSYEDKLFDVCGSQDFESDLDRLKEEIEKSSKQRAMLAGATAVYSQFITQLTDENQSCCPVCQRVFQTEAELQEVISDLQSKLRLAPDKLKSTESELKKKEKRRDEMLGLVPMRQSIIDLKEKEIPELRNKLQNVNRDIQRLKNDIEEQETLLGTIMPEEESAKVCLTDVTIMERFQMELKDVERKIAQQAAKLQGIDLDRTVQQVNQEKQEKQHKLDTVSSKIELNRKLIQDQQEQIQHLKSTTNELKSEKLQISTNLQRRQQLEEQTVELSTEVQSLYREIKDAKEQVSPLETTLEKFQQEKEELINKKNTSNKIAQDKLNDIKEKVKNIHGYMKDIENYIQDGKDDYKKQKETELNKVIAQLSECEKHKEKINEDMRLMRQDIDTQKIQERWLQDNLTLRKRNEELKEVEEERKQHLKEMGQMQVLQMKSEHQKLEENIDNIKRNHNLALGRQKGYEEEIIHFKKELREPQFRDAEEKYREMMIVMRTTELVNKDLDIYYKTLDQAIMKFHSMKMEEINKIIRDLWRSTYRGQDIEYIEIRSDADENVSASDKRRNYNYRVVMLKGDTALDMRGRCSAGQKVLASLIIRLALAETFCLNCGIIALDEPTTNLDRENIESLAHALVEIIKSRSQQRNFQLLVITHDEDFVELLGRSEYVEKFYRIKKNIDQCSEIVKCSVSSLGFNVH

Molecular target: FLAG-RNF126 C229A/C232A (catalytically inactive RNF126 mutant) (human) (UniProt Q9BV68)
Assay: affinity purification with mass spectrometry; extracts of HCC1806 cells stably expressing FLAG-RNF126 mutant immunopurified with anti-FLAG affinity beads, eluted with FLAG peptide, SDS/PAGE, silver stain, mass spectrometry

binding: binds
Substance: RAD50 (endogenous, HCC1806) (from UniProt Q92878 1-1312)

No constants are given. Whether binding was seen depends on the method and setting. In cells and extracts the contact can be indirect. Here binding means that the protein was enriched with, or labelled near, the bait; the list need not be complete.
